Reference: patent publication US20120322060A1, “DIAGNOSIS AND MONITORING TREATMENT OF PSYCHIATRIC DISEASES WITH SPADIN AND RELATED METHODS” (CENTRE NATIONAL DE LE RECHERCHE SCIENTIFIQUE - CNRS -, priority 2011, published 2012)

Test system: mice
Assay: Mouse locomotion activity
Type: in vivo
Details: i.p., short- or long-time (1 or 24 hours) after injection

Compound	locomotor activity
CNCCC(Oc1ccc(C(F)(F)F)cc1)c1ccccc1 (centres unmarked) [fluoxetine, Fluoxetine, reference compound]	Neither spadin nor fluoxetine had any effect
APLPRWSGPIGVSWGLR [spadin]	Neither spadin nor fluoxetine had any effect; also recorded: no significant difference in locomotor activity

“Also recorded” adds a separate entry of the source. No end group written: not given here.
